Record: PubChem BioAssay AID686938 (Drosophila RNAi Screening Center, 2013)
In all, the deposit lists about 23,000 reagents; shown is a random part of those that have a named target and a result. Over the whole deposit, 75 (0.33%) are marked active. 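Raw plate signals without normalisation; calls rest on plate z-scores that were not deposited; ratio present for only 364 wells.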 Reagent sequences are not shown. Not given: the dose of the treatment.

- Test: 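Fly genes required for calcium entry once internal stores are emptied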 (primary screen)
- System: Drosophila S2R+ cells
- Reagent: long dsRNA against Drosophila genes, about 0.25 µg dsRNA per well, roughly 10,000 cells
- Timing: 5 days of knock-down before the calcium assay
- Conditions: thapsigargin (SERCA pump blocker) to empty calcium stores; entry signal taken 4 min after adding it
- Detection: 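Duplicate raw fluo-4 intensities per well from a plate reader, at rest and four minutes after thapsigargin emptied calcium stores; entry-to-rest ratio filled for only some wells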
- Scale: calcium entry signal: higher = stronger calcium signal after store depletion; resting calcium signal: higher = higher resting calcium signal
- Hit rule: 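Called when the plate z-score of the entry-to-rest ratio, mean of duplicates, falls below −3; wells with low overall dye signal (Fmax z below −2) or more than five off-targets excluded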
- Meaning of the calls: active = strongly reduced calcium entry; inactive = no strong reduction

gene	dsRNA	calcium entry signal, replicate 1 (fluorescence units)	calcium entry signal, replicate 2 (fluorescence units)	resting calcium signal, replicate 1 (fluorescence units)	resting calcium signal, replicate 2 (fluorescence units)	outcome
Nach	DRSC07478	4.97e7	5.66e7	2.36e7	2.86e7	inactive
Lnk	DRSC16729	2.28e7	2.91e7	1.11e7	1.35e7	inactive
Sec6	DRSC06932	4.21e7	4.21e7	2.08e7	1.90e7	inactive
CG6726	DRSC16101	4.99e7	4.97e7	2.42e7	2.06e7	inactive
CG10660	DRSC09769	1.47e7	1.62e7	1.06e7	9.31e6	inactive
Arfrp1	DRSC18417	2.74e7	3.08e7	1.34e7	1.36e7	inactive
CG4949	DRSC19926	5.23e7	5.38e7	2.13e7	2.02e7	inactive
RpL40	DRSC00782	1.82e7	1.63e7	1.12e7	1.06e7	active
CG9222	DRSC03158	4.22e7	3.84e7	1.91e7	1.74e7	inactive
AstA-R2	DRSC14171	3.70e7	5.41e7	1.91e7	2.31e7	inactive
Prosalpha3	DRSC04644	2.38e7	2.95e7	1.58e7	1.73e7	inactive
Rassf	DRSC15612	4.37e7	3.82e7	2.00e7	1.84e7	inactive
obst-H	DRSC10935	4.54e7	4.50e7	1.95e7	1.91e7	inactive
obst-H	DRSC10940	5.00e7	4.61e7	2.00e7	1.87e7	inactive
Syt1	DRSC00156	3.68e7	3.81e7	1.90e7	1.89e7	inactive
Syt1	DRSC00157	3.93e7	3.07e7	2.04e7	1.60e7	inactive
Syt1	DRSC00158	4.08e7	4.31e7	2.11e7	2.01e7	inactive
Syt1	DRSC00840	3.76e7		1.94e7		inactive
Syt1	DRSC22077	4.13e7	8.16e7	2.02e7	3.31e7	inactive
CG6980	DRSC16162	4.57e7	4.00e7	2.07e7	1.76e7	inactive
CG17122	DRSC10245	2.66e7	4.19e7	1.31e7	1.75e7	inactive
CG1273	DRSC08291	3.15e7	3.46e7	1.83e7	1.55e7	inactive
NP15.6	DRSC16756	3.54e7	3.44e7	4.10e7	1.58e7	inactive
Upf3	DRSC04092	3.23e7		1.61e7		inactive

Entries above whose gene name begins with N or n (2):
gene	dsRNA	calcium entry signal, replicate 1 (fluorescence units)	calcium entry signal, replicate 2 (fluorescence units)	resting calcium signal, replicate 1 (fluorescence units)	resting calcium signal, replicate 2 (fluorescence units)	outcome
Nach	DRSC07478	4.97e7	5.66e7	2.36e7	2.86e7	inactive
NP15.6	DRSC16756	3.54e7	3.44e7	4.10e7	1.58e7	inactive
